Measurements as given in article PMC3961380, “Activation of 2′ 5′-Oligoadenylate Synthetase by Stem Loops at the 5′-End of the West Nile Virus Genome”.
These are yes or no findings as the source states them, for the method shown.

Target: recombinant human OAS1 p42 isoform (transcript variant 2) (human) (UniProt P00973)
Experiment: AUC + other: dynamic light scattering; sedimentation velocity at 0.4, 0.6 and 0.8 mg/mL OAS1 in 50 mM Tris, 100 mM NaCl, 1 mM DTT (pH 7.5), 20.0 °C, 45,000 rpm; DLS at 3 concentrations in the same buffer, 20.0 °C; molecular weight from s and rH by the Svedberg equation; both purified

B1: recombinant human OAS1 p42 isoform (transcript variant 2) (enzyme, UniProt P00973-2 1-364)
chain: MMDLRNTPAKSLDKFIEDYLLPDTCFRMQINHAIDIICGFLKERCFRGSSYPVCVSKVVKGGSSGKGTTLRGRSDADLVVFLSPLTTFQDQLNRRGEFIQEIRRQLEACQRERAFSVKFEVQAPRWGNPRALSFVLSSLQLGEGVEFDVLPAFDALGQLTGGYKPNPQIYVKLIEECTDLQKEGEFSTCFTELQRDFLKQRPTKLKSLIRLVKHWYQNCKKKLGKLPPQYALELLTVYAWERGSMKTHFNTAQGFRTVLELVINYQQLCIYWTKYYDFKNPIIEKYLRRQLTKPRPVILDPADPTGNLGGGDPKGWRQLAQEAEAWLNYPCFKNWDGSPVSSWILLVRPPASSLPFIPAPLHEA
binding: no binding (tested: 0.4, 0.6 and 0.8 mg/mL)
